From US6585996B1, “Lipid-soluble thiamine derivatives in the treatment of autism” (Westlake Laboratories, Inc., priority 2002, dated 2003) come the findings set out here.

For data set [1] the following is noted: 10 patients.
The conditions of data set [2]: mean of 10 patients, end of the study; P value NS vs 1st.
Setting [3] is: Pts 2: one month after treatment start.
Where [4] appears, read: Pts 3: after two months of treatment.
Where [5] appears, read: Pts 3: after two months of treatment, 50 mg TTFD twice a day, rectal suppository, N=10.

Structures are written as SMILES. Where two headings read alike, the source gives them in different places.

Take `CC(=C(CCO)SSCC1CCCO1)N(C=O)Cc1cnc(C)nc1N` (stereo in doubt) [TTFD, thiamine tetrahydrofurfuryl disulfide]: in data set [1] (setting [3]), the “Urinary total protein, mean” value was found to be 72.3 ± 65.6; the “Urinary total sulfate, mean” value was determined as 7134.3 ± 4631; the “Urinary total sulfite, mean” value came to 47.2 ± 77.6; the “Urinary total thiocyanate, mean” value is on record as 24.9 ± 21.1. Moreover, the “Urinary total thiosulfate, mean” value in data set [1] (setting [3]) worked out at 25.8 ± 15.7. In data set [1] (setting [4]), the “Urinary total protein, mean” value worked out at 62.2 ± 44.0; the “Urinary total sulfate, mean” value turned out to be 5946.2 ± 4278; the “Urinary total sulfite, mean” value was found to be 16.9 ± 24.7; the “Urinary total thiocyanate, mean” value came out at 29.3 ± 28.7. The “Urinary total thiosulfate, mean” value in data set [1] (setting [4]) is listed as 25.6 ± 24.5. Moreover, under setting [5], the “Urinary arsenic, mean concentration” value was 52.1 ± 20.3 Mcg/g Creatinine; the “Urinary cadmium, mean concentration” value turned out to be 0.42 ± 0.49 Mcg/g Creatinine; the “Urinary lead, mean concentration” value is on record as 3.3 ± 3.8 Mcg/g Creatinine; the “Urinary mercury, mean concentration” value was 1.21 ± 1.24 Mcg/g Creatinine. Also, the “Course of urinary arsenic during treatment” value (after 1 month of treatment and at completion of the study) is “tended to increase followed by a decline”. In data set [2], the “Mean value for 2nd hair arsenic concentration” value is recorded as 2nd: 2.35 ± 0.91 NS PPM.
